Patent US20240240155A1, “Organoid-Derived Monolayers and Uses Thereof” (Hub Organoids IP B.V., priority 2021, published 2024)
For at least one compound, name, drawing or mass did not settle the structure.

Tested on: kidney monolayers
Experiment: Rhodamine transport assay, effect of DAC culture condition
Type: cell-based, human
Settings: 1 uM decitabine added to KEM on day 2 after seeding

Nc1ncn([C@H]2C[C@H](O)[C@@H](CO)O2)c(=O)n1 [DAC, decitabine]
Rhodamine 123 loading/transport: did not result in increased Rhodamine 123 loading/transport
